# Assay results reported in the supplement of paper PMC8728848.
# Some of the results follow.
# B1: EfCBM33A (Enterococcus faecalis), Q838S1 (protein)
# chain: MKKSLLTIVLAFSFVLGGAALAPTVSEAHGYVASPGSRAFFGSSAGGNLNTNVGRAQWEPQSIEAPKNTFITGKLASAGVSGFEPLDEQTATRWHKTNITTGPLDITWNLTAQHRTASWDYYITKNGWNPNQPLDIKNFDKIASIDGKQEVPNKVVKQTINIPTDRKGYHVIYAVWGIGDTVNAFYQAIDVNIQ
# Key:
# Experiment in all cases: glycan array binding signal (z-score within array); higher = stronger binding
# Details in all cases: glycan notation: IUPAC condensed, linker removed
# [1] = target: Fuc(a1-2)[GalNAc(b1-3)]Gal
# In short: (§1)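 The Consortium for Functional Glycomics database supplied 3228 glycan arrays, of which those lacking an available protein sequence were dropped. The binding signal, a within-array Z-score, was averaged across arrays of the same protein sequence and across linkers. Negative scores can be read as non-binding.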
# [2] = target: Fuc(a1-3)GlcNAc
# In short: as §1
# [3] = target: Fuc(a1-3)[Gal(b1-4)]Glc6S
# In short: as §1
# [4] = target: Fuc(a1-3)[Gal(b1-4)]GlcNAc
# In short: as §1
# [5] = target: Fuc(a1-3)[Gal(b1-4)]GlcNAc(b1-2)Man
# In short: as §1
# [6] = target: Fuc(a1-3)[Gal(b1-4)]GlcNAc(b1-2)Man(a1-3)[Fuc(a1-3)[Gal(b1-4)]GlcNAc(b1-2)Man(a1-6)]Man(b1-4)GlcNAc(b1-4)GlcNAc
# In short: as §1
# [7] = target: Fuc(a1-3)[Gal(b1-4)]GlcNAc(b1-2)Man(a1-3)[Fuc(a1-3)[Gal(b1-4)]GlcNAc(b1-2)Man(a1-6)]Man(b1-4)GlcNAc(b1-4)[Fuc(a1-6)]GlcNAc
# In short: as §1
# [8] = target: Fuc(a1-3)[Gal(b1-4)]GlcNAc(b1-3)Gal(b1-3)[Fuc(a1-4)]GlcNAc
# In short: as §1
# [9] = target: Fuc(a1-3)[Gal(b1-4)]GlcNAc(b1-3)Gal(b1-4)[Fuc(a1-3)]GlcNAc
# In short: as §1
# [10] = target: Fuc(a1-3)[Gal(b1-4)]GlcNAc(b1-3)Gal(b1-4)[Fuc(a1-3)]GlcNAc(b1-3)Gal(b1-4)[Fuc(a1-3)]GlcNAc
# In short: as §1
# [11] = target: Fuc(a1-3)[Gal(b1-4)]GlcNAc(b1-3)GalNAc
# In short: as §1
# [12] = target: Fuc(a1-3)[Gal(b1-4)]GlcNAc(b1-6)GalNAc
# In short: as §1
# [13] = target: Fuc(a1-3)[Gal(b1-4)]GlcNAc(b1-6)[Gal(b1-3)GlcNAc(b1-3)]Gal(b1-4)Glc
# In short: as §1
# [14] = target: Fuc(a1-3)[Gal(b1-4)]GlcNAc6S
# In short: as §1
# [15] = target: Fuc(a1-3)[Gal3S(b1-4)]Glc
# In short: as §1
# [16] = target: Fuc(a1-3)[Gal3S(b1-4)]GlcNAc
# In short: as §1
# [17] = target: Fuc(a1-3)[Gal3S(b1-4)]GlcNAc6S
# In short: as §1
# [18] = target: Fuc(a1-3)[GalNAc(b1-4)]GlcNAc
# In short: as §1
# [19] = target: Fuc(a1-3)[GalNAc(b1-4)]GlcNAc6S
# In short: as §1
# [20] = target: Fuc(a1-4)GlcNAc
# In short: as §1
# [21] = target: Fuc(b1-3)GlcNAc
# In short: as §1
# [22] = target: Gal(a1-2)Gal
# In short: as §1
# [23] = target: Gal(a1-3)Gal
# In short: as §1
# [24] = target: Gal(a1-3)Gal(b1-3)GlcNAc
# In short: as §1
# [25] = target: Gal(a1-3)Gal(b1-3)GlcNAc(b1-2)Man
# In short: as §1
# [26] = target: Gal(a1-3)Gal(b1-3)GlcNAc(b1-2)Man(a1-3)[Gal(a1-3)Gal(b1-3)GlcNAc(b1-2)Man(a1-6)]Man(b1-4)GlcNAc(b1-4)GlcNAc
# In short: as §1
# [27] = target: Gal(a1-3)Gal(b1-3)GlcNAc(b1-3)GalNAc
# In short: as §1
# [28] = target: Gal(a1-3)Gal(b1-3)GlcNAc(b1-6)GalNAc
# In short: as §1
# [29] = target: Gal(a1-3)Gal(b1-3)[Fuc(a1-4)]GlcNAc(b1-2)Man(a1-3)[Gal(a1-3)Gal(b1-3)[Fuc(a1-4)]GlcNAc(b1-2)Man(a1-6)]Man(b1-4)GlcNAc(b1-4)GlcNAc
# In short: as §1
# [30] = target: Gal(a1-3)Gal(b1-4)Glc
# In short: as §1
# [31] = target: Gal(a1-3)Gal(b1-4)GlcNAc
# In short: as §1
# [32] = target: Gal(a1-3)Gal(b1-4)GlcNAc(b1-2)Man
# In short: as §1
# [33] = target: Gal(a1-3)Gal(b1-4)GlcNAc(b1-2)Man(a1-3)[Gal(a1-3)Gal(b1-4)GlcNAc(b1-2)Man(a1-6)]Man(b1-4)GlcNAc(b1-4)GlcNAc
# In short: as §1
# [34] = target: Gal(a1-3)Gal(b1-4)GlcNAc(b1-3)GalNAc
# In short: as §1
# [35] = target: Gal(a1-3)Gal(b1-4)GlcNAc(b1-6)GalNAc
# In short: as §1
# [36] = target: Gal(a1-3)Gal(b1-4)[Fuc(a1-3)]GlcNAc
# In short: as §1
# [37] = target: Gal(a1-3)Gal(b1-4)[Fuc(a1-3)]GlcNAc(b1-2)Man(a1-3)[Gal(a1-3)Gal(b1-4)[Fuc(a1-3)]GlcNAc(b1-2)Man(a1-6)]Man(b1-4)GlcNAc(b1-4)GlcNAc
# In short: as §1
# [38] = target: Gal(a1-3)GalNAc
# In short: as §1
# [39] = target: Gal(a1-3)[Gal(a1-4)]Gal(b1-4)GlcNAc
# In short: as §1
# [40] = target: Gal(a1-4)Gal(b1-3)GlcNAc(b1-2)Man(a1-3)[Gal(a1-4)Gal(b1-3)GlcNAc(b1-2)Man(a1-6)]Man(b1-4)GlcNAc(b1-4)GlcNAc
# In short: as §1
# [41] = target: Gal(a1-4)Gal(b1-4)Glc
# In short: as §1
# [42] = target: Gal(a1-4)Gal(b1-4)GlcNAc
# In short: as §1
# [43] = target: Gal(a1-4)Gal(b1-4)GlcNAc(b1-2)Man(a1-3)[Gal(a1-4)Gal(b1-4)GlcNAc(b1-2)Man(a1-6)]Man(b1-4)GlcNAc(b1-4)GlcNAc
# In short: as §1
# [44] = target: Gal(a1-4)Gal(b1-4)GlcNAc(b1-3)Gal(b1-4)Glc
# In short: as §1
# [45] = target: Gal(a1-4)GlcNAc
# In short: as §1
binder,measurement,setting,value
B1,glycan array binding signal (z-score),[1],0.576
same,glycan array binding signal (z-score),[2],-0.585
same,glycan array binding signal (z-score),[3],-0.134
same,glycan array binding signal (z-score),[4],-0.476
same,glycan array binding signal (z-score),[5],-0.178
same,glycan array binding signal (z-score),[6],-1.5
same,glycan array binding signal (z-score),[7],-0.453
same,glycan array binding signal (z-score),[8],0.114
same,glycan array binding signal (z-score),[9],0.008
same,glycan array binding signal (z-score),[10],-0.207
same,glycan array binding signal (z-score),[11],1.33
same,glycan array binding signal (z-score),[12],0.409
same,glycan array binding signal (z-score),[13],-0.984
same,glycan array binding signal (z-score),[14],0.882
same,glycan array binding signal (z-score),[15],0.431
same,glycan array binding signal (z-score),[16],-0.046
same,glycan array binding signal (z-score),[17],-0.44
same,glycan array binding signal (z-score),[18],0.464
same,glycan array binding signal (z-score),[19],-0.82
same,glycan array binding signal (z-score),[20],0.25
same,glycan array binding signal (z-score),[21],-1.52
same,glycan array binding signal (z-score),[22],-1.64
same,glycan array binding signal (z-score),[23],0.733
same,glycan array binding signal (z-score),[24],-0.812
same,glycan array binding signal (z-score),[25],1.41
same,glycan array binding signal (z-score),[26],-0.787
same,glycan array binding signal (z-score),[27],-0.232
same,glycan array binding signal (z-score),[28],0.171
same,glycan array binding signal (z-score),[29],1.05
same,glycan array binding signal (z-score),[30],-0.551
same,glycan array binding signal (z-score),[31],-1.18
same,glycan array binding signal (z-score),[32],-0.629
same,glycan array binding signal (z-score),[33],0.252
same,glycan array binding signal (z-score),[34],0.455
same,glycan array binding signal (z-score),[35],-1.51
same,glycan array binding signal (z-score),[36],-0.905
same,glycan array binding signal (z-score),[37],-0.476
same,glycan array binding signal (z-score),[38],-0.651
same,glycan array binding signal (z-score),[39],0.98
same,glycan array binding signal (z-score),[40],1.56
same,glycan array binding signal (z-score),[41],-0.647
same,glycan array binding signal (z-score),[42],-0.033
same,glycan array binding signal (z-score),[43],0.852
same,glycan array binding signal (z-score),[44],-0.03
same,glycan array binding signal (z-score),[45],0.566

# Another view of some results above.
binder	measurement	setting	value
B1	glycan array binding signal (z-score)	[1]	0.576
same	glycan array binding signal (z-score)	[2]	-0.585
